# Results from one PubChem assay

The results are deposited in PubChem (AID1159506; NCATS, 2015).

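Luminescence from an EWS-FLI1 target-promoter (NR0B1) reporter, set against a CMV-promoter reporter, two days after silencing single genes in TC32 Ewing sarcoma cells.
Each siRNA was applied at 20 nM.
A z-score of the log NR0B1-over-CMV signal, less the median of siRNAs with the same seed; more negative means a stronger specific loss of the NR0B1 reporter.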

The strongest results of the screen are mostly left out here.
Sequences are the guide (antisense) strand, without overhang.

{"sirna": "UUUCAUAUCUUUCAGCAGC", "target gene": "SPCS3", "seed-corrected z-score": "-0.2564"}
{"sirna": "AUCGGUAUCUUGGUCUUGC", "target gene": "ATAD2", "seed-corrected z-score": "-0.01638"}
{"sirna": "UUGAUUCAUUGAACUGUUG", "target gene": "FOXP2", "seed-corrected z-score": "-0.4181"}
{"sirna": "UUUAUUGGAAGCAAGACUC", "target gene": "RPP25", "seed-corrected z-score": "0.8833"}
{"sirna": "UAACCUAUUGUGCUAACUC", "target gene": "SOX5", "seed-corrected z-score": "0.4081"}
{"sirna": "AAUAGGUAAUUCAUCUUUC", "target gene": "RMND5A", "seed-corrected z-score": "-1.052"}
{"sirna": "UUUUCAUCCUCACUCGUGG", "target gene": "EGFL6", "seed-corrected z-score": "-0.3081"}
{"sirna": "AAAAGGGUCCGUUUCAUCU", "target gene": "RGS2", "seed-corrected z-score": "-0.1376"}
{"sirna": "AACCGUCCAACAUAUCUUG", "target gene": "DPY19L1", "seed-corrected z-score": "0.337"}
{"sirna": "UCUUCUAAAACGUGCAUCC", "target gene": "COMMD8", "seed-corrected z-score": "0.4736"}
{"sirna": "UGAGGUACUGUCGUACUUG", "target gene": "ISM1", "seed-corrected z-score": "-0.6468"}
{"sirna": "UUCCACAUAGCAUCUCACC", "target gene": "ADPRHL1", "seed-corrected z-score": "0.5724"}
{"sirna": "UUUGUGAAGUCUAUAGGUC", "target gene": "OPHN1", "seed-corrected z-score": "-1.491"}
{"sirna": "UGAGUGUCCCGACAUAGAG", "target gene": "SMDT1", "seed-corrected z-score": "0.1631"}
{"sirna": "UUAGGGAGAAAGCCGCAGC", "target gene": "LOC729324", "seed-corrected z-score": "-0.0879"}
{"sirna": "AAUGUUUCCAUCGUAGUCG", "target gene": "EXOSC8", "seed-corrected z-score": "-1.591"}
{"sirna": "AAUAGUCCUUCGUUCGUCC", "target gene": "FNBP1L", "seed-corrected z-score": "0.4752"}
{"sirna": "ACACGUAGGAGUGUAGGCG", "target gene": "ZDHHC24", "seed-corrected z-score": "-0.004359"}
{"sirna": "UGUUGUAAAACUCCGCUUC", "target gene": "KCTD2", "seed-corrected z-score": "1.097"}
{"sirna": "AAUUCGGUCAUUACAUCCC", "target gene": "KLHL41", "seed-corrected z-score": "0.3571"}
{"sirna": "AAUUCUUAUUGGCUGCUUC", "target gene": "MTUS2-AS1", "seed-corrected z-score": "-0.3368"}
{"sirna": "AUAGCAAUUGGACUUGUGG", "target gene": "REG4", "seed-corrected z-score": "-0.6812"}
{"sirna": "UUUCUUAUGUGGCUGGUUG", "target gene": "NBPF15", "seed-corrected z-score": "-0.02623"}
{"sirna": "UAGAAUCUGACGACCAGGC", "target gene": "WDR5", "seed-corrected z-score": "0.9023"}
{"sirna": "UAACCAGUAGCAUUGAUGA", "target gene": "TM7SF2", "seed-corrected z-score": "0.1957"}
{"sirna": "UGCUGUUGUAGUUGAAGCC", "target gene": "FBN3", "seed-corrected z-score": "0.3231"}
{"sirna": "UUCGCUAUGUUGUUCAACC", "target gene": "CLMN", "seed-corrected z-score": "0.7206"}
{"sirna": "UUCGGAAUCAUCGCCCAAG", "target gene": "C16orf96", "seed-corrected z-score": "-0.9254"}
{"sirna": "UCGUUUUUGAGCUUUAACC", "target gene": "ZNF75A", "seed-corrected z-score": "0.099"}
{"sirna": "UGACCUUGAAUUUAGGAGG", "target gene": "RCSD1", "seed-corrected z-score": "0.01565"}
{"sirna": "AUUGUUGAAAGUCACGUGG", "target gene": "NR4A2", "seed-corrected z-score": "-0.5159"}
{"sirna": "ACAGUUACUUAGGAGAUCU", "target gene": "CRISP2", "seed-corrected z-score": "3.32"}
{"sirna": "AUCUUGUUUACUGCCCGGG", "target gene": "PLEKHA4", "seed-corrected z-score": "-0.7941"}
{"sirna": "UUUGUUUUCCUAUCAGUUC", "target gene": "AK4", "seed-corrected z-score": "1.121"}
{"sirna": "UAUGGUAAGGAGUGCUUGG", "target gene": "PPP1R2", "seed-corrected z-score": "-0.8606"}
{"sirna": "UACCGUGACAGAAUUUAGG", "target gene": "GLG1", "seed-corrected z-score": "-0.199"}
{"sirna": "UCUGUAAAUUCAAAGAUCA", "target gene": "GOLGA6L7P", "seed-corrected z-score": "0.617"}
{"sirna": "UGUGGAACCAUUGCAACCC", "target gene": "LIN9", "seed-corrected z-score": "-0.2675"}
{"sirna": "UAUCAUUGAAACGUGGAUC", "target gene": "CSNK2A1", "seed-corrected z-score": "-0.07678"}
{"sirna": "AAGAGGUCAACGUUUUUCU", "target gene": "LOC389906", "seed-corrected z-score": "-0.1449"}
{"sirna": "UCCGUGUUCAUGUCGAAGA", "target gene": "PQLC2L", "seed-corrected z-score": "0.4324"}
{"sirna": "UCAAUUUUGAUCGAAGCUC", "target gene": "HNRNPK", "seed-corrected z-score": "2.228"}
{"sirna": "AUCUGUAGGAACUAUAACC", "target gene": "HMGCLL1", "seed-corrected z-score": "-0.5457"}
{"sirna": "UUGGUUGUCAACCACAGUC", "target gene": "C2orf83", "seed-corrected z-score": "0.6566"}
{"sirna": "UAAUUUAUGACUAGAGUCU", "target gene": "HIST1H2AG", "seed-corrected z-score": "0.4011"}
{"sirna": "UGUGCAACCAGGGUAAUCG", "target gene": "KLF5", "seed-corrected z-score": "0.3482"}